PubChem BioAssay AID1508597, Cure First – 2020

- Test: 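Knock-downs altering ovarian cancer cell survival with or without PARP inhibitor rucaparib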 (primary screen)
- Cells: human ovarian carcinoma lines grown from tumours: OCI-P5x (papillary serous) and OCI-C5x (clear cell)
- Knock-down reagent: siRNA pool against human genes, 1.25 pmol siRNA per well
- Duration: 72 h or 96 h, depending on the cell culture
- Challenge: rucaparib 20 µM (about IC30) or vehicle, present until read-out
- Rucaparib or vehicle: Vehicle
- Cell line: OCI-P5x (serous)
- Measurement: 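Luminescent ATP-based viability assay read 72 or 96 h after transfection, depending on culture, given as normalised percent viability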
- Scale: viability, normalised: higher = more viable cells remaining
- Hit rule: 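Active when normalised viability falls below 80 percent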
- Meaning of the calls: active = viability under 80%; inactive = viability 80% or more
Shown is a random part of the about 2,100 reagents, under one of the conditions tested. 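Calls flag viability under 80% in either arm, not effects specific to rucaparib; the reference for percent is not stated.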 A reagent listed more than once was tested more than once; the source does not tell the runs apart. Not given: the 100% reference.

{"gene symbol": "LRRK2", "technical replicate": "1", "viability, normalised (%)": 89.8, "call": "inactive"}
{"gene symbol": "LRRK2", "technical replicate": "2", "viability, normalised (%)": 88.6, "call": "inactive"}
{"gene symbol": "LRRK2", "technical replicate": "3", "viability, normalised (%)": 86.1, "call": "inactive"}
{"gene symbol": "KAT8", "technical replicate": "1", "viability, normalised (%)": 42.6, "call": "active"}
{"gene symbol": "KAT8", "technical replicate": "2", "viability, normalised (%)": 35.3, "call": "active"}
{"gene symbol": "KAT8", "technical replicate": "3", "viability, normalised (%)": 62.8, "call": "active"}
{"gene symbol": "PHF14", "technical replicate": "1", "viability, normalised (%)": 67.6, "call": "active"}
{"gene symbol": "PHF14", "technical replicate": "2", "viability, normalised (%)": 80.2, "call": "inactive"}
{"gene symbol": "PHF14", "technical replicate": "3", "viability, normalised (%)": 128, "call": "inactive"}
{"gene symbol": "GUCY2F", "technical replicate": "1", "viability, normalised (%)": 125, "call": "inactive"}
{"gene symbol": "GUCY2F", "technical replicate": "2", "viability, normalised (%)": 102, "call": "inactive"}
{"gene symbol": "GUCY2F", "technical replicate": "3", "viability, normalised (%)": 125, "call": "inactive"}
{"gene symbol": "NME5", "technical replicate": "1", "viability, normalised (%)": 80.6, "call": "inactive"}
{"gene symbol": "NME5", "technical replicate": "1", "viability, normalised (%)": 93.3, "call": "inactive"}
{"gene symbol": "NME5", "technical replicate": "2", "viability, normalised (%)": 72.9, "call": "active"}
{"gene symbol": "NME5", "technical replicate": "2", "viability, normalised (%)": 81.4, "call": "inactive"}
{"gene symbol": "NME5", "technical replicate": "3", "viability, normalised (%)": 81.1, "call": "inactive"}
{"gene symbol": "NME5", "technical replicate": "3", "viability, normalised (%)": 90.7, "call": "inactive"}
{"gene symbol": "TET1", "technical replicate": "1", "viability, normalised (%)": 67.8, "call": "active"}
{"gene symbol": "TET1", "technical replicate": "2", "viability, normalised (%)": 98.5, "call": "inactive"}
{"gene symbol": "TET1", "technical replicate": "3", "viability, normalised (%)": 85.9, "call": "inactive"}
{"gene symbol": "SDC4", "technical replicate": "1", "viability, normalised (%)": 108, "call": "inactive"}
{"gene symbol": "SDC4", "technical replicate": "2", "viability, normalised (%)": 97.8, "call": "inactive"}
{"gene symbol": "SDC4", "technical replicate": "3", "viability, normalised (%)": 105, "call": "inactive"}
{"gene symbol": "MED13", "technical replicate": "1", "viability, normalised (%)": 63.1, "call": "active"}
{"gene symbol": "MED13", "technical replicate": "2", "viability, normalised (%)": 73, "call": "active"}
{"gene symbol": "MED13", "technical replicate": "3", "viability, normalised (%)": 70.2, "call": "active"}
{"gene symbol": "BORA", "technical replicate": "1", "viability, normalised (%)": 56.2, "call": "active"}
{"gene symbol": "BORA", "technical replicate": "2", "viability, normalised (%)": 50.3, "call": "active"}
{"gene symbol": "BORA", "technical replicate": "3", "viability, normalised (%)": 54.2, "call": "active"}
{"gene symbol": "DGKD", "technical replicate": "1", "viability, normalised (%)": 111, "call": "inactive"}
{"gene symbol": "DGKD", "technical replicate": "2", "viability, normalised (%)": 81.7, "call": "inactive"}
{"gene symbol": "DGKD", "technical replicate": "3", "viability, normalised (%)": 93.1, "call": "inactive"}
